Drawing on publication doi:10.1101/2022.05.13.491604, this text covers binding for one molecule.

By UniProt entry, the sequences of proteins in these tests, tags left out.
UniProt P13681: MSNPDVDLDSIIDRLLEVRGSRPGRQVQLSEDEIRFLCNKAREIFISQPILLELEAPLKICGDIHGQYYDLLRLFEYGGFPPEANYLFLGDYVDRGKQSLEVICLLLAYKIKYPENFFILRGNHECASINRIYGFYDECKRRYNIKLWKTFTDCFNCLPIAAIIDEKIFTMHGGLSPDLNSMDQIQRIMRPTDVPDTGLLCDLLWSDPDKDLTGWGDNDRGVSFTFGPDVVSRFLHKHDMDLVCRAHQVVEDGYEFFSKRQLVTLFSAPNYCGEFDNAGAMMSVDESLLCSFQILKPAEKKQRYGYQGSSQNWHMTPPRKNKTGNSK

Test [1] deals with Myc-tagged Dis2 (PP1) (fission yeast (Schizosaccharomyces pombe)) (UniProt P13681). Briefly: co-IP.
Test [2] addresses T1, Myc-tagged Sds21 (PP1) (fission yeast (Schizosaccharomyces pombe)) (UniProt P23880).
T1 sequence: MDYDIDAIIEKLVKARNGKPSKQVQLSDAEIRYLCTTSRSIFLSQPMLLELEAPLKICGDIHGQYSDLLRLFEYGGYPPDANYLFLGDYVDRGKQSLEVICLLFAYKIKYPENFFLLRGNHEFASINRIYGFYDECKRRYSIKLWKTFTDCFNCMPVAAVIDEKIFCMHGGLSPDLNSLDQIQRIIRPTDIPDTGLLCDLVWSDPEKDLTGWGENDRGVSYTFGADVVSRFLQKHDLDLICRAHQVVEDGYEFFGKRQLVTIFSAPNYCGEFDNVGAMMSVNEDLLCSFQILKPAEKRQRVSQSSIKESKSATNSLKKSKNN
As to the kind of experiment: co-IP.

No constants are given. Whether binding was seen depends on the method and setting. Binding seen in cells or lysates may run through a third protein. Some results given as binding are weak or reduced against the parent protein; the word gives no strength. Sequences can lack the tags named with a protein.

B1: Flag-tagged Rif1 (wild type) (protein, UniProt Q96UP3 1-1400)
chain: MTKEIAVKEASNMLLQEPSTPSSQAVGLSSSPSSSIRKKKVNFSSELENSPGGNRPSFGLPKRGILKTSTPLSSIKQPNFQSFEGNESEKETSLQELQSSFCSGIENLQHVEKSARIETYSKLSSFLKIYTPSLPEDPIFPLLNQLCNFLLSDRCSNNSEGSPDFQLNTQANKLLSILLWHPTISSHIQPETATVFIEQSLNFLEGPKLTKALAAQHLHLLSCQKCPLSIHPLCNRILDVCFNISFPSLVIGQERLAVLTKILSQFPLEFSRRVVDWAPYLLACLVDASRPIREKALLLALDLSKHLYHDKLVARTILANFRSDIKGTAFVLIMTEQFEKLVIEEDDGVYVAHAWAAIISVLGGARISSWEYFNTWLKIIQLCFNSMNPLTKCAAQTSWIRLIHEFSLSETLTQATKRLTLLCQPISMVLGSRNLPTVKNAAMTTLIALIYACLRPGISDAMLSLLWDSVIVNILEKCALKNEVTIFESSNILLALFNTLSNGVWKDDRLVCRESVEAKELPKLNPVWVRANCSRTIEPVKTLLLLAKPDHTVKTTTPARKQHIRGLSYEQSSSVWSTYIKCLASAGQKEIKRSVETGRAICCICSSLHKFLYSKSIRKDELYVERVSRFALMVKSAIEAFGINTFVEASYLVSDNQLVLIDQTKAIDSYDHVPISPLIYLLHSLALLTNGTLFSTVHAAYSSILSSIEEYHLRFGLKLMLLWDCVSPLSDDGTLVLARVLVSHEVSRLTSEALLSELKSRNGNNSVEEGFSEEERSILLKLLSWNVKFCSISDAGSVNNLLQQYFTAIYKFEGCGSVFPFVVDPFTTILDDVLSFEANKVYSFAISLMKVSTFESCTKELPPVTLPENIRQHLDSYNHMVELYNTLLQRLSSSDQVDLQCRYLHELSEFIKKIPKEFIFHTICKLSKGLIPCFLMNAFPQLEKSTTLQKSCTNFCILILQLLLNSTATASNILESLSPLLTSGLKSISKEVVLAAIKFWNQVFGKFESEEYPIELQKTISYLSKTYIILLPFQSLCPGGKQANHQSSEKMSDILKGVDELRSVSKNGPYASSQDKGEKTTEFSGPGKPNNDNYIQIASVQELDDSSKGKAGKMPASKKNKRQKGDVKKIDETKNEATDMEESLTTPSGKVNKEVIVDDTSLRDEAIVPDKAIDVADNSNALLKENISSQSNRKADNNGTPSVNNSFTTANNDECSKENSQIEPEGQTASREGVLSTPRSTRKKRKLGRKSQSSNVNKEVAISEVSATLENVEVIERHGISEQGQNLDESACVLTNESSLSQTEIPEEKTENETTAVNGFENSKKRQFSSLLSGSIDTNNESNKVSSVEFDKSGPQDIIQSMTEATFEIEKNIQDLKSEEVQKLSDLLMRLQRAILSRIA
Turning to B1, the binding entry in test [1] and in test [2] was “binds” in each case.
